# Test results as given in the supplement of paper PMC6411743.
# By UniProt entry, the sequences of proteins in these tests, tags left out. Where a name states a change or a piece, a line headed by the entry shows the natural chain unless it says otherwise.
# UniProt Q9H4I2: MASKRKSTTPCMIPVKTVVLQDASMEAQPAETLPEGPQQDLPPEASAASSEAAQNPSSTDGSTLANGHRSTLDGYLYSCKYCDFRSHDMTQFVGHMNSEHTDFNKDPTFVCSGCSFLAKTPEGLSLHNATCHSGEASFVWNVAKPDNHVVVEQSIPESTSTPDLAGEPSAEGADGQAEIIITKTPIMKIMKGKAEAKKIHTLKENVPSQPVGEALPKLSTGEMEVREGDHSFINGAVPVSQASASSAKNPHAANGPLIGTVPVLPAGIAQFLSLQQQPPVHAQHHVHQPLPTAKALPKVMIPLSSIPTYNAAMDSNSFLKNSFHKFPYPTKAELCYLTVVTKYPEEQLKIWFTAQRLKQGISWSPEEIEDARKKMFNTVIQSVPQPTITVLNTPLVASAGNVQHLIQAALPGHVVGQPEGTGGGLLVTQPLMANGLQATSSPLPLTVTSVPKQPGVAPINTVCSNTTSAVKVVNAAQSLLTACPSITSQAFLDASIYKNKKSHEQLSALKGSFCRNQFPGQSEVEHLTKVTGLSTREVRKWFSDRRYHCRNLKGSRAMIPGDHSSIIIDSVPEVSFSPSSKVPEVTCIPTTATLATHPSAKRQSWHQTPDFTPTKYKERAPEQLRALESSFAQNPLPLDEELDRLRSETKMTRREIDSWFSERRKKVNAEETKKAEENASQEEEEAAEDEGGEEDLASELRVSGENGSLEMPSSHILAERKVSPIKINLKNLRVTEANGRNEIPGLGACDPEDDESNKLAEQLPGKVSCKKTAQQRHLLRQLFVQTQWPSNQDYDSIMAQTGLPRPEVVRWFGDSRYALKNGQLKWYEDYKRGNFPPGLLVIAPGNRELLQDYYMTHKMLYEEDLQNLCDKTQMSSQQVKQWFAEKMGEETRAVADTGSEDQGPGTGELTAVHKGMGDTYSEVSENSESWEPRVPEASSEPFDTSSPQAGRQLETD
# UniProt Q9HCJ0: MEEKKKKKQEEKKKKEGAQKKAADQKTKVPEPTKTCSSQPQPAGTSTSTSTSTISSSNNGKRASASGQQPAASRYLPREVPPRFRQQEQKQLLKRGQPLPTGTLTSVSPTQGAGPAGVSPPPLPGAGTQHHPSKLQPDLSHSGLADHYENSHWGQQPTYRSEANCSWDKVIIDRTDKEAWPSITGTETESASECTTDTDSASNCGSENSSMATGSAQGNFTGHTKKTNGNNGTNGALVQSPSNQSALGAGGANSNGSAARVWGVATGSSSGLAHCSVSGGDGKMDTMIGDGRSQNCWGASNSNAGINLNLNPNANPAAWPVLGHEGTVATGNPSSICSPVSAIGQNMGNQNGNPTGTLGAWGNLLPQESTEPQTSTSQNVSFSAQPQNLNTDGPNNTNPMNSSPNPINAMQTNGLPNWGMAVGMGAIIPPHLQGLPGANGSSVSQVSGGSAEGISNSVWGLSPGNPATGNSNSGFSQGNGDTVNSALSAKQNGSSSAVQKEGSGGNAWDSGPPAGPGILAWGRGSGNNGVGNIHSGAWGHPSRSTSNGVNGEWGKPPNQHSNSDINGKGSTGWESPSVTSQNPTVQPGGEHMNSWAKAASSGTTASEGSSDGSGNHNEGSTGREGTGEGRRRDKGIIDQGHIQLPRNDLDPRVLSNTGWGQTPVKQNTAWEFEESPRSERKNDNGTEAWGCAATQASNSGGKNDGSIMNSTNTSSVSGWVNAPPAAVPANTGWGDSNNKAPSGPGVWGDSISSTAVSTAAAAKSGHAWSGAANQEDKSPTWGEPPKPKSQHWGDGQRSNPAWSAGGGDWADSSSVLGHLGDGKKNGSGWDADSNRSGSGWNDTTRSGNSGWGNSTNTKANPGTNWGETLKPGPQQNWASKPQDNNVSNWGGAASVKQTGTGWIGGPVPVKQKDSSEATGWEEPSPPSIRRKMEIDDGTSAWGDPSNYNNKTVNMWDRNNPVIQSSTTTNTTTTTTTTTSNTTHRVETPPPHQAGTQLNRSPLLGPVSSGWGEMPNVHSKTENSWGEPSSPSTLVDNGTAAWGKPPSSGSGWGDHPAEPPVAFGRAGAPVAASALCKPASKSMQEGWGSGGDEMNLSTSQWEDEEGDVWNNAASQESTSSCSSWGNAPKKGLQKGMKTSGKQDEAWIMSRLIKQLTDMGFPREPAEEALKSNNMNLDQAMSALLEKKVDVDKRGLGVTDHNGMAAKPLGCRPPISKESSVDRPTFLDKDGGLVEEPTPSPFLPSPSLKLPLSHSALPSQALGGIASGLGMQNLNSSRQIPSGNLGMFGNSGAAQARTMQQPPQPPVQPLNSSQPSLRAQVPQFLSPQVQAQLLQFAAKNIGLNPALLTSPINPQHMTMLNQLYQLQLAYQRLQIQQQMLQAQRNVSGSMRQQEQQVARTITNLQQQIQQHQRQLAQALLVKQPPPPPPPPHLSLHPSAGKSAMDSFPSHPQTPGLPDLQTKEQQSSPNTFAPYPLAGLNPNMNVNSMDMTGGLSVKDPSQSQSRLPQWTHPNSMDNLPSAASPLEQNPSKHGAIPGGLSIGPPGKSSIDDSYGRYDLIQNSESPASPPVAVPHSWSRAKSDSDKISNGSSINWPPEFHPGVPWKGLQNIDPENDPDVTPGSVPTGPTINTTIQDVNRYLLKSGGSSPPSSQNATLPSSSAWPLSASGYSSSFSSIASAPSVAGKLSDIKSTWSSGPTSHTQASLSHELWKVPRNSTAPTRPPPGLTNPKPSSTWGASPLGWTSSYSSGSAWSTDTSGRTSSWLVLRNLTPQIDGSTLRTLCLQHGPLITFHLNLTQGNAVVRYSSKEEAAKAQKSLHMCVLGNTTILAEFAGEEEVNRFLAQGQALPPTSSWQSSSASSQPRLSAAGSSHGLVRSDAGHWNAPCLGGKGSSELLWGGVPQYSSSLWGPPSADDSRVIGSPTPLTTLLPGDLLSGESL
# UniProt Q9H8E8: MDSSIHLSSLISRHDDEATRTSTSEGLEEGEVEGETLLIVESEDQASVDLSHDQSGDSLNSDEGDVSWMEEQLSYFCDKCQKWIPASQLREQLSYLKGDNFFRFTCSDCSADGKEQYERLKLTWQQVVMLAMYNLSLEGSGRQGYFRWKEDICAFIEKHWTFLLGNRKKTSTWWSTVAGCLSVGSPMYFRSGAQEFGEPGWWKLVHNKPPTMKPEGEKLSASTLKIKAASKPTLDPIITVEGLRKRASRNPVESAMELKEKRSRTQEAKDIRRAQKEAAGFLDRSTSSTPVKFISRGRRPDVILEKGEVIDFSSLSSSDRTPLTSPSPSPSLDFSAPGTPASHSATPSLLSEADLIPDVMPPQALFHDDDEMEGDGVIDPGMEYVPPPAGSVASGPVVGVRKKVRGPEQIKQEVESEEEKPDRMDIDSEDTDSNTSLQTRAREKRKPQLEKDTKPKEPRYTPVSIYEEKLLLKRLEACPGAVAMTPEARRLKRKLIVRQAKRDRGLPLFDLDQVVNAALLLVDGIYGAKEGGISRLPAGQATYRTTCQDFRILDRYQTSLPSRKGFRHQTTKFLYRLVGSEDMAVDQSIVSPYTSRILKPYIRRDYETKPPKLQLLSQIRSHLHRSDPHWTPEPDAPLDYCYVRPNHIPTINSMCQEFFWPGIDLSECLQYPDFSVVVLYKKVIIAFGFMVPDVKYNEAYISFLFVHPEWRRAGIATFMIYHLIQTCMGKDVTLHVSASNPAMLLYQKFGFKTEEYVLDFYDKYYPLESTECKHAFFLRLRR
# UniProt Q9H9B4: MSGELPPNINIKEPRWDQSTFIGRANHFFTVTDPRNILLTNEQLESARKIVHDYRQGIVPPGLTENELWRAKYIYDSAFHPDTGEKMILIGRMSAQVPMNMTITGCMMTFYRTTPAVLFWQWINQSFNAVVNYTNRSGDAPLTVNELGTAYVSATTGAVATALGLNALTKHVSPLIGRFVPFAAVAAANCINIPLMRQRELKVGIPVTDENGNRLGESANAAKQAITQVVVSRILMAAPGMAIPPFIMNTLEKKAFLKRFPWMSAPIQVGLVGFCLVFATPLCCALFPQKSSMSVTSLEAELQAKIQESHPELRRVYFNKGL
# UniProt Q9H7L9: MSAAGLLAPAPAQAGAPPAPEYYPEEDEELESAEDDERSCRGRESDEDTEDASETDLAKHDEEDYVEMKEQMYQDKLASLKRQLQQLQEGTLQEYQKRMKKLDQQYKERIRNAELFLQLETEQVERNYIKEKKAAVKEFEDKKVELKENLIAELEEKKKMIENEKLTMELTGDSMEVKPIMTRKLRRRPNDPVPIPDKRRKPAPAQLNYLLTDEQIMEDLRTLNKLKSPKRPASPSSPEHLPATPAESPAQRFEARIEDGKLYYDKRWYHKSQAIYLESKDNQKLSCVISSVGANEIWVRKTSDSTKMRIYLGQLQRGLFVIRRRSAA
# UniProt Q9GZT8: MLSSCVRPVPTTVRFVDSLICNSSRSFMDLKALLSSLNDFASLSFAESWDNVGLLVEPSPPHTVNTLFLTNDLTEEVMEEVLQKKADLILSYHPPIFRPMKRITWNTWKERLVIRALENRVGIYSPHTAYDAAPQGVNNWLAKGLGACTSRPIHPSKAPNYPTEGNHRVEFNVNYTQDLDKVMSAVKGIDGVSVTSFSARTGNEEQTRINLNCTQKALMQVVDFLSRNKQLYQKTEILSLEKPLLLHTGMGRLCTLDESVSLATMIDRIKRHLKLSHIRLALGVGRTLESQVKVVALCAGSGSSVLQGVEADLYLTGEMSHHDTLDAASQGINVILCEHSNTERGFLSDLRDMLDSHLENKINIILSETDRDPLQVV
# UniProt Q9H4B0: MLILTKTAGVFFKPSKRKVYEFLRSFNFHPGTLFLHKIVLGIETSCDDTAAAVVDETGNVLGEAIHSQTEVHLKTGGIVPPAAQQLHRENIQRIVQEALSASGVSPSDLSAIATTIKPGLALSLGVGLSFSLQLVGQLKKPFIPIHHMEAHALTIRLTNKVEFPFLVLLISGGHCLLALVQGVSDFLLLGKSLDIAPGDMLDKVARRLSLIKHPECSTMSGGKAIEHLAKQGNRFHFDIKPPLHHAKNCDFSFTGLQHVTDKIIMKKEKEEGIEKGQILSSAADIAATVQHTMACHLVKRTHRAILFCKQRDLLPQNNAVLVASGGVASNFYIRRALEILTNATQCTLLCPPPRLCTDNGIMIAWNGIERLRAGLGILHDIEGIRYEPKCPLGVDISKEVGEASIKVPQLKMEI
# UniProt Q9HCS7: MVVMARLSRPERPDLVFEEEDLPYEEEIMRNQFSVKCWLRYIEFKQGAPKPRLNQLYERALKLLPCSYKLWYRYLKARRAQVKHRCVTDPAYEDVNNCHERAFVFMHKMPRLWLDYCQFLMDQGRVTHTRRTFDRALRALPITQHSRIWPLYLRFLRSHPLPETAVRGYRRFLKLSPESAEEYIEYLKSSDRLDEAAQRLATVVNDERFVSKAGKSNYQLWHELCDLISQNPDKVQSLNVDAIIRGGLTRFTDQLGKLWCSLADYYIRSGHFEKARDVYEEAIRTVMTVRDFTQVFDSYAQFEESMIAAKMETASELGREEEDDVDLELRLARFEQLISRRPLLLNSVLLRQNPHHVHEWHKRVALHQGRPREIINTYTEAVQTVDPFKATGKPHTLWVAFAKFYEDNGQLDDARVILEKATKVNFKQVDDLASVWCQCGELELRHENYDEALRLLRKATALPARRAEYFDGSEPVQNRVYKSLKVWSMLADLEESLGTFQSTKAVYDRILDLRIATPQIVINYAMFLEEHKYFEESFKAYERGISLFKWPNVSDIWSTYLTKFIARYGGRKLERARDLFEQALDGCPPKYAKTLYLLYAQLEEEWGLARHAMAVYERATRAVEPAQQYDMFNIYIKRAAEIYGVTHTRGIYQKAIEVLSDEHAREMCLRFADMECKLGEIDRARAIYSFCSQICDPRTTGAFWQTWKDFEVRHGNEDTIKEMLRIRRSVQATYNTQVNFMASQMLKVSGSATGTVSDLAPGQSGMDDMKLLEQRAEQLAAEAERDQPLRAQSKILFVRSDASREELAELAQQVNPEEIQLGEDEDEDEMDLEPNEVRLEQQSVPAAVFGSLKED
# UniProt Q9H040: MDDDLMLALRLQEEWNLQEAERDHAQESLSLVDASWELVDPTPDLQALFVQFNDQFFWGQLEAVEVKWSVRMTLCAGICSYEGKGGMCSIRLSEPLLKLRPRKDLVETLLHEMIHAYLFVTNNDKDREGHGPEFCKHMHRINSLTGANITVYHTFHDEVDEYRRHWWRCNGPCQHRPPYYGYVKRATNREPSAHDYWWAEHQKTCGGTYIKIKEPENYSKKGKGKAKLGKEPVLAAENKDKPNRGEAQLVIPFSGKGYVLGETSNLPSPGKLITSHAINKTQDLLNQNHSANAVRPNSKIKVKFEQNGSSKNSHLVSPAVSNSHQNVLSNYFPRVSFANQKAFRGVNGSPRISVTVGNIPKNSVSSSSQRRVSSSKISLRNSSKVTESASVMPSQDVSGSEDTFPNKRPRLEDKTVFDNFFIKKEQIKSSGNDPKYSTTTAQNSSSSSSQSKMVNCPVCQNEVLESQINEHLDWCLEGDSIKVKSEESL
# ± gives the standard deviation of the averaged measurements. Only a part is listed here, and it is no random draw. Most entries show no effect beyond the scatter of the controls.
# Compound: Nc1ncnc2c1ncn2[C@@H]1O[C@H](COP(=O)(O)OP(=O)(O)OP(=O)(O)O)[C@@H](O)[C@H]1O [adenosine triphosphate]
# Assay: NP40-soluble protein abundance relative to vehicle (solubility fold change) (ratio); higher = more soluble protein in presence of ATP
# Details: concentration: 0.1mM
# Outline: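 Each value is a fold change relative to the detergent-processed vehicle, calculated per replicate from vsn-normalised intensities. Jurkat crude lysate received eight concentrations (0.1 to 10 mM) for 10 min at room temperature and 3 min at 37 °C, then was solubilised in 0.8% NP40 with benzonase (60 min, 4 °C). The ultracentrifuged supernatant was TMT-labelled and run by LC-MS/MS in three independent experiments.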
row,Target,NP40-soluble protein abundance
1,ZHX3 (UniProt Q9H4I2),1.03 ± 0.049
2,UniProt Q9HBL7,1.03 ± 0.076
3,COMMD4 (UniProt Q9H0A8),0.951 ± 0.029
4,UniProt Q9HCJ0 and related entries,0.979 ± 0.07
5,ACBD3 (UniProt Q9H3P7),1.05 ± 0.077
6,WDR54 (UniProt Q9H977),1.05 ± 0.058
7,TOLLIP (UniProt Q9H0E2),1.01 ± 0.025
8,UniProt Q9H2Y7 and related entries,0.925 ± 0.12
9,UniProt Q9H8E8 and related entries,0.988 ± 0.16
10,UniProt Q9H3H1 and related entries,1.05 ± 0.072
11,QRSL1 (UniProt Q9H0R6),1.02 ± 0.042
12,UniProt Q9GZR1 and related entries,0.908 ± 0.036
13,UniProt Q9GZP4,1.01 ± 0.075
14,SFXN1 (UniProt Q9H9B4),0.9804 ± 0.0076
15,SUDS3 (UniProt Q9H7L9),0.969 ± 0.033
16,UniProt Q9HBK9,0.982 ± 0.12
17,UniProt Q9H8G2,0.978 ± 0.043
18,RHOF (UniProt Q9HBH0),1.07 ± 0.19
19,GGNBP2 (UniProt Q9H3C7),1.07 ± 0.14

row,Target,NP40-soluble protein abundance
1,UniProt Q9H9V9 and related entries,1.04 ± 0.15
2,CPVL (UniProt Q9H3G5),1.01 ± 0.042
3,GRPEL1 (UniProt Q9HAV7),0.924 ± 0.087
4,PRKRIP1 (UniProt Q9H875),0.888 ± 0.055
5,UniProt Q9HCJ3 and related entries,0.909 ± 0.069
6,PREB (UniProt Q9HCU5),1.02 ± 0.077
7,UniProt Q9H8U3 and related entries,0.934 ± 0.035
8,DEF6 (UniProt Q9H4E7),1 ± 0.032
9,CSTF2T (UniProt Q9H0L4),1.008 ± 0.0075
10,UniProt Q9GZT8 and related entries,1 ± 0.044
11,PARVG (UniProt Q9HBI0),0.998 ± 0.1
12,OSGEPL1 (UniProt Q9H4B0),1.07 ± 0.087
13,RSAD1 (UniProt Q9HA92),1.1 ± 0.14
14,XAB2 (UniProt Q9HCS7),1.11 ± 0.089
15,UniProt Q9HAF1 and related entries,0.91 ± 0.13
16,MRPS30 (UniProt Q9NP92),0.934 ± 0.096
17,UniProt Q9H0P0 and related entries,1.02 ± 0.033
18,SPRTN (UniProt Q9H040),0.97 ± 0.11
19,APOBEC3G (UniProt Q9HC16),0.977 ± 0.11

# Same assay, conditions: concentration: 0.5mM
row,Target,NP40-soluble protein abundance
1,ZHX3 (UniProt Q9H4I2),0.989 ± 0.03
2,UniProt Q9HBL7,0.979 ± 0.032
3,COMMD4 (UniProt Q9H0A8),0.963 ± 0.055
4,UniProt Q9HCJ0 and related entries,0.978 ± 0.099
5,ACBD3 (UniProt Q9H3P7),1.05 ± 0.071
6,WDR54 (UniProt Q9H977),0.983 ± 0.1
7,TOLLIP (UniProt Q9H0E2),0.981 ± 0.021
8,UniProt Q9H2Y7 and related entries,1.05 ± 0.17
9,UniProt Q9H8E8 and related entries,0.883 ± 0.13
10,UniProt Q9H3H1 and related entries,1.04 ± 0.053
11,QRSL1 (UniProt Q9H0R6),1.04 ± 0.063
12,UniProt Q9GZR1 and related entries,0.916 ± 0.14
13,UniProt Q9GZP4,1 ± 0.063
14,SFXN1 (UniProt Q9H9B4),0.997 ± 0.031
15,SUDS3 (UniProt Q9H7L9),0.965 ± 0.047
16,UniProt Q9HBK9,0.983 ± 0.05
17,UniProt Q9H8G2,1 ± 0.076
18,RHOF (UniProt Q9HBH0),1.08 ± 0.13
19,GGNBP2 (UniProt Q9H3C7),1.07 ± 0.12

row,Target,NP40-soluble protein abundance
1,UniProt Q9H9V9 and related entries,1.03 ± 0.22
2,CPVL (UniProt Q9H3G5),0.9904 ± 0.0056
3,GRPEL1 (UniProt Q9HAV7),0.888 ± 0.12
4,PRKRIP1 (UniProt Q9H875),0.944 ± 0.066
5,UniProt Q9HCJ3 and related entries,0.932 ± 0.024
6,PREB (UniProt Q9HCU5),1.03 ± 0.051
7,UniProt Q9H8U3 and related entries,0.897 ± 0.074
8,DEF6 (UniProt Q9H4E7),0.968 ± 0.036
9,CSTF2T (UniProt Q9H0L4),1 ± 0.0094
10,UniProt Q9GZT8 and related entries,1.01 ± 0.033
11,PARVG (UniProt Q9HBI0),1.03 ± 0.053
12,OSGEPL1 (UniProt Q9H4B0),1.08 ± 0.018
13,RSAD1 (UniProt Q9HA92),1.05 ± 0.067
14,XAB2 (UniProt Q9HCS7),1.03 ± 0.019
15,UniProt Q9HAF1 and related entries,0.996 ± 0.21
16,MRPS30 (UniProt Q9NP92),1.01 ± 0.1
17,UniProt Q9H0P0 and related entries,1.03 ± 0.065
18,SPRTN (UniProt Q9H040),0.94 ± 0.17
19,APOBEC3G (UniProt Q9HC16),0.949 ± 0.14
